Experimental data published in PubChem BioAssay AID212 (DTP/NCI, 2004).
The list shows only some results of the screen, not a fair sample: it gathers tests that were run many times, whatever their T/C, doses with no T/C, and many T/C values between a quarter and a half above the control. Further doses and runs are listed elsewhere. T/C is the treated group as % of the vehicle group. Schedule codes are those of the source, taken here to give the interval after Q, in days (D) or hours (H), and the number of doses after X. Some T/C values carry the count of animals alive at the toxicity check (mostly the fifth day); without a count, all were alive then. Some doses were run more than once; the results are listed from low to high. Some entries give survivors of the animals treated and no T/C: the source holds a T/C of zero for them, seemingly a mark for toxic or unscored doses. Counts of survivors are from the toxicity check (mostly the fifth day) where no day follows; animals may have died later.

Test system: BDF1 mice, colon carcinoma 38 sc, T/C %
Experiment: NCI In Vivo Anticancer Drug Screen. Data for tumor model Colon Carcinoma 38 (subcutaneous) in B6D2F1 (BDF1) mice
Settings: T/C endpoint: median tumor weight (est.), schedule: Q07DX002 (ip), higher T/C = larger tumour; for T/C: evaluated on day 20
Method in brief: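 Ratio of survival or tumor size, compound-treated animals relative to vehicle controls, in tumor-bearing mice.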

[1] = dose: 6.25 mg/kg/injection, vehicle: saline
[2] = dose: 50.0 mg/kg/injection, vehicle: saline
[3] = dose: 25.0 mg/kg/injection, vehicle: saline with Tween-80
[4] = dose: 200.0 mg/kg/injection, vehicle: saline with Tween-80
[5] = dose: 100.0 mg/kg/injection, vehicle: saline with Tween-80
[6] = dose: 400.0 mg/kg/injection, vehicle: saline with Tween-80
[7] = dose: 200.0 mg/kg/injection, vehicle: saline
[8] = dose: 400.0 mg/kg/injection, vehicle: saline
[9] = dose: 800.0 mg/kg/injection, vehicle: saline
[10] = dose: 40.0 mg/kg/injection, vehicle: saline
[11] = dose: 80.0 mg/kg/injection, vehicle: saline
[12] = dose: 100.0 mg/kg/injection, vehicle: saline
[13] = dose: 25.0 mg/kg/injection, vehicle: saline
[14] = dose: 200.0 mg/kg/injection, vehicle: water

CC(=O)Oc1ccccc1O
T/C (dose: 25.0 mg/kg/injection, vehicle: saline + Tween-80 + alcohol): 128 % of control | survivor count (dose: 100.0 mg/kg/injection, vehicle: saline + Tween-80 + alcohol): 3 of 10 on day 20 | survivor count (dose: 200.0 mg/kg/injection, vehicle: saline + Tween-80 + alcohol): 5 of 10 on day 20 | survivor count (dose: 400.0 mg/kg/injection, vehicle: saline + Tween-80 + alcohol): 0 of 10 on day 20

Cc1cc(Nc2ccc3c(c2)OCO3)c2cc3c(cc2n1)OCO3
survivor count (dose: 400.0 mg/kg/injection, vehicle: Klucel (hydroxypropylcellulose) (HPC)): 0 of 10 on day 20 | survivor count (dose: 800.0 mg/kg/injection, vehicle: Klucel (hydroxypropylcellulose) (HPC)): 0 of 10 on day 20

C1OC1CN1CCN(CC2CO2)CC1 (centres undefined)
T/C [1]: 135 % of control

CC[As](=O)(O)CC
T/C [2]: 126 % of control [9 of 10 alive on day 20]

Nc1nc2c(ncn2C2OC(CO)C(O)C2N)c(=O)[nH]1 (centres undefined)
T/C [3]: 145 % of control | T/C [4]: 127 % of control

COc1ccc(C(Cn2ccnc2)Sc2ccc(Cl)c(Cl)c2)cc1 (centres undefined)
survivor count [5]: 4 of 10 on day 20 | survivor count [4]: 0 of 10 on day 20 | survivor count [6]: 0 of 10 on day 20

O=C(O[Si](Cc1ccccc1)(Cc1ccccc1)Cc1ccccc1)N(CCCl)CCCl
survivor count [5]: 6 of 10 on day 20 | survivor count [4]: 0 of 10 on day 20 | survivor count [6]: 0 of 10 on day 20

N=C1CCCS1
survivor count [7]: 6 of 10 on day 20 | survivor count [8]: 0 of 10 on day 20 | survivor count [9]: 0 of 10 on day 20

Cc1cc(=O)n2c3c(c4c(cc13)c(CN(C)C)cc(=O)n4C)OC2
survivor count [4]: 1 of 10 on day 20

CCOC(=O)C(CC(C)C)NC(=O)C(N)Cc1ccc(N(CCCl)CCCl)cc1 (centres undefined)
survivor count [10]: 6 of 10 on day 20 | survivor count (dose: 40.0 mg/kg/injection, vehicle: water): 2 of 10 on day 20 | survivor count [11]: 0 of 10 on day 20 | survivor count (dose: 80.0 mg/kg/injection, vehicle: water): 0 of 10 on day 20 | survivor count (dose: 160.0 mg/kg/injection, vehicle: saline): 0 of 10 on day 20 | survivor count (dose: 160.0 mg/kg/injection, vehicle: water): 0 of 10 on day 20

Nc1nc(-c2cccc3ccccc23)cc2ccccc12
T/C (dose: 12.5 mg/kg/injection, vehicle: saline with Tween-80): 125 % of control | T/C [3]: 129 % of control | T/C (dose: 50.0 mg/kg/injection, vehicle: saline with Tween-80): 145 % of control | T/C [4]: 126 % of control [9 of 10 alive on day 20]

Nc1ccccc1N
T/C (dose: 50.0 mg/kg/injection, vehicle: Klucel (hydroxypropylcellulose) (HPC)): 133 % of control

CCCCCCC(=O)/C=C/c1cccc(OCOCC)c1
T/C [3]: 138 % of control [9 of 10 alive]

CC(C)NCC(O)COc1cccc2ccccc12 (centres undefined)
T/C (dose: 16.0 mg/kg/injection, vehicle: Klucel (hydroxypropylcellulose) (HPC)): 133 % of control | T/C (dose: 32.0 mg/kg/injection, vehicle: Klucel (hydroxypropylcellulose) (HPC)): 144 % of control

CCC(C(=O)O)C(=O)O.[NH-]CC1CCCC[N-]1.[Pt+2]
survivor count [8]: 5 of 10 on day 20 | survivor count [9]: 0 of 10 on day 20

COC(=O)C(Cl)(Cl)N=Nc1c(Cl)cc(Cl)c(C)c1Cl
T/C [12]: 125 % of control

OCC1OC(n2cnc3c(Cl)ncnc32)C(O)C1O (centres undefined)
T/C [1]: 136 % of control | survivor count (dose: 12.5 mg/kg/injection, vehicle: saline): 6 of 10 on day 20 | T/C [13]: 143 % of control [8 of 10 alive on day 20] | T/C [2]: 135 % of control [9 of 10 alive on day 20] | T/C [12]: 96 [8 of 10 alive on day 20], 101, 134, 163 % of control | T/C [7]: 104, 112 [8 of 10 alive on day 20], 136, 159 % of control | T/C [9]: 141 % of control [9 of 10 alive on day 20]

ClCCCN1CCCCC1CCl (centres undefined)
survivor count [2]: 5 of 10 on day 20

CCCCNC(C)C1(O)Cc2c(O)c3c(c(O)c2C(OC2CC(N)C(O)C(C)O2)C1)C(=O)c1c(OC)cccc1C3=O (centres undefined)
T/C (dose: 20.0 mg/kg/injection, vehicle: saline): 128 % of control [8 of 10 alive on day 20] | survivor count (dose: 640.0 mg/kg/injection, vehicle: saline): 6 of 10 on day 20

C1CC[N-]CC1.[Cl][Pt+2][Cl].[NH-]C1CC1
T/C (dose: 6.25 mg/kg/injection, vehicle: water): 128 % of control [9 of 10 alive on day 20] | T/C (dose: 25.0 mg/kg/injection, vehicle: water): 125 % of control | survivor count (dose: 100.0 mg/kg/injection, vehicle: water): 5 of 10 on day 20 | T/C [14]: 130 % of control [8 of 10 alive on day 20] | survivor count [14]: 0 of 10 on day 20

O=C1C(NCCO)=C(N2CC2)C(=O)C(NCCO)=C1N1CC1
T/C (dose: 0.25 mg/kg/injection, vehicle: saline): 142 % of control [9 of 10 alive on day 20] | survivor count (dose: 2.0 mg/kg/injection, vehicle: saline): 0 of 10 on day 20 and 5 of 10 on day 20 | survivor count (dose: 4.0 mg/kg/injection, vehicle: saline): 0 of 10 on day 20

COC1C(/C=C/C(C)=O)OC2OC(C)(C)OC21 (centres undefined)
T/C [13]: 143 and 149 % of control | survivor count [8]: 0 of 10 on day 20

CN(C)P(=O)(Oc1ccccc1)N(C)C
T/C [3]: 126 % of control | T/C [6]: 147 % of control [9 of 10 alive on day 20] | survivor count (dose: 800.0 mg/kg/injection, vehicle: saline with Tween-80): 2 of 10 on day 20

C[C@H](N)C(=O)N[C@@H]1[C@H]2C(=C(O)C[C@@H](O)[C@@H]2O)C(=O)O[C@]1(C)C(Cl)Cl
survivor count (dose: 12.0 mg/kg/injection, vehicle: Klucel (hydroxypropylcellulose) (HPC)): 0 of 10 on day 20 and 2 of 10 on day 20

O=c1[nH]c(=O)n(C2CC(O)C(CO)O2)cc1C(F)(F)F (centres undefined)
T/C [10]: 130 % of control | T/C [11]: 128 % of control | T/C [8]: 130 % of control
